Experimental findings from patent US20220153782A1 (MEMORYPLUS LTD., priority 2019, published 2022) are described below.

Where no end group is shown, it is not given here. The star is where a group is joined. Lauroyl = CCCCCCCCCCCC(=O)*

The data set in a line: general procedure: Fmoc solid-phase peptide synthesis; HCTU. The following applies: whole synthesis, 220 nm, trifluoroacetate salt.

For the substance Lauroyl-QHSQITKV, the “final HPLC purity” value was found to be 99.45%.
For Lauroyl-QHTQITKV, the “final HPLC purity” value worked out at 98.14%.
